Structures can show the parent of a compound that is named as a salt. Marks after values point to notes of the source that are not given here.
Experiment: Urine phenyl sulfate salt (PS) concentration in test subjects grouped by ACR
Protocol: Plasma samples and urine samples were collected from 316 test subjects (including 143 males and 173 females) and the test subjects were tested for gender and eleven items (a phenyl sulfate salt [PS] concentration, a heart rate, a plasma glucose concentration, a hemoglobin A1c [HbA1c] value, a urine pH value, an estimated glomerular filtration rate [eGFR], a urinary albumin/creatinine ratio [ACR], a triglyceride [TG] level, a uric acid [UA] level, a blood urea nitrogen [BUN] level, and a pulse wave velocity [PWV] value). Multiple regression analysis was performed with the PS concentration used as a dependent function and with twelve values, that is, test values of the other ten items excluding the PS concentration and values corresponding to the age and the gender, used as independent variables. As a result, the PS concentration was more highly correlated with ACR corresponding to an index of early diabetic nephropathy than a plasma glucose concentration (p=0.343) and the HbA1c value (p=0.351) corresponding to indexes of diabetes, the eGFR (p=0.512) and the BUN level (p=0.046) corresponding to indexes of renal function, the TG level (p=0.368) corresponding to an index of liver function, the UA level (p=0.524) corresponding to an index of gout, or the PWV value (0.213) corresponding to an index of arteriosclerosis.
Joint Committee on Diabetic Nephropathy prescribed, in December 2013, a novel early diagnostic criterion that “a patient showing ACR of 30 to 299 mg/g is diagnosed with early diabetic nephropathy”. Therefore, the test subjects were classified into groups respectively showing ACR of 0 to less than 30 (mg/g) (normal albuminuria), of 30 to 299 (mg/g) (microalbuminuria), and of not less than 300 (mg/g) (overt albuminuria) (respectively designated as a pre-nephropathy group, an early nephropathy group, and an overt nephropathy group), and the correlation with the PS concentration was checked (Table 1).

## O=S(=O)(O)Oc1ccccc1 [PS, phenyl sulfate]
ACR 0 to less than 30 mg/g (pre-nephropathy group), 182 test subjects
  Urine PS concentration: 53.3 nmol/mL
ACR 30 to 299 mg/g (early nephropathy group), 89 test subjects
  Urine PS concentration: 40.1 nmol/mL
ACR not less than 300 mg/g (overt nephropathy group), 44 test subjects
  Urine PS concentration: 91.0*** nmol/mL

— patent US10802031B2, “Marker for determining diabetic nephropathy” (TOHOKU UNIVERSITY, priority 2015, dated 2020)
